Values of other authors as cited in patent publication US6117857A, “Pharmaceutical composition” (priority 1995, dated 2000).
Counter-ions that a name gives are not always drawn. At least one read-out could not be matched to a standard name with certainty.

Conditions: topical; cited from earlier work

In the case of `O=C(O)P(=O)(O)O` [foscarnet, trisodium salt of phosphonoformic acid, hexahydrate], the “Topically applied amount entering the systemic circulation” value is listed as “up to 5%”.
